Data on two substances can be found in paper PMC4392632.

Assay [1] has as its target T1, Phaeodactylum tricornutum cyclin-dependent kinase A2 (CDKA2), GAL4 DNA-binding domain fusion (bait) (Phaeodactylum tricornutum) (UniProt B7GDW6).
T1 sequence: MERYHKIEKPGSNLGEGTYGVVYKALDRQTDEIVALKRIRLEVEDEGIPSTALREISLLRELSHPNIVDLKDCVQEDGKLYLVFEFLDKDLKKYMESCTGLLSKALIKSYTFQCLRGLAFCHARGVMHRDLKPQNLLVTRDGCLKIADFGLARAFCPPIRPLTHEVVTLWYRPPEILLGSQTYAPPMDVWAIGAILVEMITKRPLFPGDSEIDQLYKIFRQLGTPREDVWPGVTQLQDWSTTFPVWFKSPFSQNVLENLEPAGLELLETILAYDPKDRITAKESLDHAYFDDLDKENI
In words: two-hybrid; Y2H cDNA library screen; bait fused to GAL4 DNA-binding domain in yeast PJ694-alpha, transformed with prey plasmids of a custom-made P. tricornutum cDNA library; selection on SD lacking Leu, Trp and His; at least 10^6 transformants.

Assay [2] has as its target T1, Phaeodactylum tricornutum cyclin-dependent kinase A2 (CDKA2), GAL4 DNA-binding domain fusion (bait) (Phaeodactylum tricornutum). In words: two-hybrid; pairwise Y2H co-transformation of bait (DBD) and prey (AD) plasmids in yeast PJ694-alpha; growth on medium lacking Leu, Trp and His and X-Gal (LacZ) test; three independent colonies.

Results are given in words; binding and its absence hold for the method and conditions named. A result given as binding can be weak or reduced; the word gives no strength. Sequences can lack the tags named with a protein.

As for “Cdc Kinase Subunit 1 (CKS1), prey (AD) fusion (Phaeodactylum tricornutum)”, the binding result in assay [1] and in assay [2] was “binds” each time.
For “cyclin P6 (CYCP6), prey (AD) fusion (Phaeodactylum tricornutum)”, the binding result in assay [2] is “no binding”.
